Laboratory results published in paper PMC5602300.
Results are given in words; binding and its absence hold for the method and conditions named. In cells and extracts the contact can be indirect. Some binding calls cover weakened binding; strength is not graded here. Where a sequence is shown, tags or fusion partners need not be part of it.

Tests used:
Assay in all cases: pull-down + SEC; subunits co-expressed in Sf9 (MultiBac); His-tag purification on Ni-NTA, then Superose 6 gel filtration in 20 mM HEPES, 150 mM KCl, 1 mM DTT, pH 7.5
Astrin 1–693 (human) = target: T1, Astrin 1–693 (human) (UniProt Q96R06)
T1 sequence: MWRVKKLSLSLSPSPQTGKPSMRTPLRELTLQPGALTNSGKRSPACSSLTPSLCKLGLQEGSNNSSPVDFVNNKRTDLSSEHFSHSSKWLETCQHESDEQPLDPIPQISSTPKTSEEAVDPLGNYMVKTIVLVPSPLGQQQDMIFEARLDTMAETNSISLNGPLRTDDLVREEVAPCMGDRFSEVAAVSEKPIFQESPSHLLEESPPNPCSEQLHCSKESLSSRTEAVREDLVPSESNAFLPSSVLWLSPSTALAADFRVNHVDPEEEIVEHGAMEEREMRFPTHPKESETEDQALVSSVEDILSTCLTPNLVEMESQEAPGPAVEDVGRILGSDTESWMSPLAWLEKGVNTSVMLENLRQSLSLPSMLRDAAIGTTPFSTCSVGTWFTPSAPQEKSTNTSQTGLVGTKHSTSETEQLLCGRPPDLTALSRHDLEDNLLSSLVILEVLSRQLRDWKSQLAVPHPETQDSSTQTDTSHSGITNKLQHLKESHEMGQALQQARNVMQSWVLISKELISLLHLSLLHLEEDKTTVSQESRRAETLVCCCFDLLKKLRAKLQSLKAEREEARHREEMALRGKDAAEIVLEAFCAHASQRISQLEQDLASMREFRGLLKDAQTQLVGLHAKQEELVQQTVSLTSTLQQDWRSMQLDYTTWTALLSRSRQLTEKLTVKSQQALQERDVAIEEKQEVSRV

Astrin 324–693 (human) = target: T2, Astrin 324–693 (human) (UniProt Q96R06)
T2 sequence: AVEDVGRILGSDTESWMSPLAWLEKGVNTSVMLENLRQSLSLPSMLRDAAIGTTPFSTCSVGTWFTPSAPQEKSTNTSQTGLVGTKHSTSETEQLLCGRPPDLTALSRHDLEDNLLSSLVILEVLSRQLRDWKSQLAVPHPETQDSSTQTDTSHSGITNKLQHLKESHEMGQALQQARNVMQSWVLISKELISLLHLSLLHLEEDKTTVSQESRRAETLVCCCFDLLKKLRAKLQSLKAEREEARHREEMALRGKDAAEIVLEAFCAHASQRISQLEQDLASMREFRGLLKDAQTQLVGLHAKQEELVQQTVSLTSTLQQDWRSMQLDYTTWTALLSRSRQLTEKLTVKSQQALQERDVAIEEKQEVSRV

Astrin 465–693 (human) = target: T3, Astrin 465–693 (human) (UniProt Q96R06)
T3 sequence: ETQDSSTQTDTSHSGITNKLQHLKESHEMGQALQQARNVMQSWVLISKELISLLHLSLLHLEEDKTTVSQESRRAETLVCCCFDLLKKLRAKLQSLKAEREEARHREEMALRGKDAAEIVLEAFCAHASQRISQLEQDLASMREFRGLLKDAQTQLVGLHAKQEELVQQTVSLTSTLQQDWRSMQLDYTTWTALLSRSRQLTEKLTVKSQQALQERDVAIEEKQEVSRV

[1] = target: T4, Astrin 465–693 region without the predicted loop 465–482 (human) (UniProt Q96R06)
T4 sequence: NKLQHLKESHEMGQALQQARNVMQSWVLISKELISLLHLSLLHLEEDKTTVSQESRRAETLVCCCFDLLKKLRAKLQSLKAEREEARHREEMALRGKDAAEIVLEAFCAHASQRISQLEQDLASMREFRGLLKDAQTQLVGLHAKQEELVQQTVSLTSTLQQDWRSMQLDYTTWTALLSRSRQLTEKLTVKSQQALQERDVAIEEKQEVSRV

[2] = target: T5, Astrin, full length (subunit of the reconstituted Astrin-SKAP complex) (human) (UniProt Q96R06)
T5 sequence: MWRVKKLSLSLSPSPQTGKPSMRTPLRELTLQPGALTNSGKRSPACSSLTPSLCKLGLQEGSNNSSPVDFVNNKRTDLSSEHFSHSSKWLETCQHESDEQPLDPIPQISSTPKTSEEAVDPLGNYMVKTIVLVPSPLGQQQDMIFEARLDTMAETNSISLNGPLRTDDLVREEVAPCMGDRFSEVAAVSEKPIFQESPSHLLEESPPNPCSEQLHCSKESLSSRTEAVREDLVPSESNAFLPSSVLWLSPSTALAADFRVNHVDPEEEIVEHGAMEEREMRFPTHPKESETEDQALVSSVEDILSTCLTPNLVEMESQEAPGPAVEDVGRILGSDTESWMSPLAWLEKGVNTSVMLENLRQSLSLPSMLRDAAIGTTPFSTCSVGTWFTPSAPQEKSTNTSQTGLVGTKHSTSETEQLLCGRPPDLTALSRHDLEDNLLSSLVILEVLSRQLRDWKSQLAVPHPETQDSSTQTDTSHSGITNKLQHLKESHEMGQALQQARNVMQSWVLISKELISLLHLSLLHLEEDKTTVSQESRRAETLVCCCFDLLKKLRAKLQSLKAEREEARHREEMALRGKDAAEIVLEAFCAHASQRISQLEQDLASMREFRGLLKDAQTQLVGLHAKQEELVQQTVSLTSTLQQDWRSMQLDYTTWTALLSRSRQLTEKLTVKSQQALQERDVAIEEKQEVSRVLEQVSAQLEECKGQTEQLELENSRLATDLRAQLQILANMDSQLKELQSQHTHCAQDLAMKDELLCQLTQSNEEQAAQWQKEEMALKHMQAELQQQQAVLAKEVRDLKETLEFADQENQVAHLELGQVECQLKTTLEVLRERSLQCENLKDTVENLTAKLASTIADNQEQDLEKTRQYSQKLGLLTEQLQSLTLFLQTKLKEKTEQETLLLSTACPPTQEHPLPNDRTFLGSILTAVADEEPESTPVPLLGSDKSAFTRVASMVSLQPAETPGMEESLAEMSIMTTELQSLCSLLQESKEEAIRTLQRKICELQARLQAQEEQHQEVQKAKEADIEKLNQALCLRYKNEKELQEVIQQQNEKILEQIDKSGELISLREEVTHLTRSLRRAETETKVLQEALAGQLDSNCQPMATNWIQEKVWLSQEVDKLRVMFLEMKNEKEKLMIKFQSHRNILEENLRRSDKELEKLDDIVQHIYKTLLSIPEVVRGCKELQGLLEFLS

Measured: binding

B1: MYCBP (protein, UniProt Q99417 1-103)
chain: MAHYKAADSKREQFRRYLEKSGVLDTLTKVLVALYEEPEKPNSALDFLKHHLGAATPENPEIELLRLELAEMKEKYEAIVEENKKLKAKLAQYEPPQEEKRAE
binds: all assays above
